In PubChem BioAssay AID485353 (National Center for Advancing Translational Sciences (NCATS), 2010):
Out of some 330,000 compounds screened, about 610 (0.18%) were called active. The shares of active, inactive and inconclusive entries below differ from those in the screen. Calls follow the shape of the full dose curve. Potencies beside an inconclusive call are fits to weak or partial responses and may not hold up.

Experiment: qHTS of Yeast-based Assay for SARS-CoV PLP; also: nearly all actives have a fitted effect of over 55% in size
Details: S. cerevisiae expressing SARS-CoV PLpro; Potency: growth rescue; series mostly up to 32.9 µM
Potency is read from the fitted curve at half-maximal effect.

Compound | Potency
Cc1ccc(CNC(=O)c2ccc3c(=O)c(O)c(-c4ccc(C)cc4)[nH]c3c2)cc1 | inconclusive: 1.78 µM [activator, full curve]
CCn1c(SCC(=O)NC(C)(C)C)nc(O)cc1=O | inconclusive: 0.891 µM [activator, partial curve]
CCOc1ccccc1N1CCN(C(=O)c2ccncc2)CC1 | inactive
COc1ccccc1C(=O)NCCn1cc(SCC(=O)NCc2ccco2)c2ccccc21 | inconclusive: 3.55 µM [activator, full curve, poor fit]
CCNC(=S)N/N=C/c1cn(Cc2ccc(F)cc2)c2ccccc12 | inconclusive: 10 µM [activator, partial curve]
O=C(COc1cccc(Cl)c1)NNC(=S)Nc1ccccc1 | inconclusive: 8.91 µM [activator, partial curve]
CCc1ccc(C(C)NC(=S)NC2CCCCC2)cc1 (configuration not stated) | inconclusive: 11.2 µM [activator, partial curve]
O=C(CC1Nc2ccccc2NC1=O)Nc1ccccc1 (configuration not stated) | inconclusive: 20 µM [activator, single point]
Clc1cccc(-c2cc3nc4c(c(NCc5ccco5)n3n2)CCCC4)c1 | inactive
Cc1cc(C)n2c(nc3ccccc32)c1C(=O)NN | inactive
CN1C(=O)c2ccc(NC(=O)c3ccc(N4CCCCC4)c([N+](=O)[O-])c3)cc2C1=O | active: 14.1 µM
Cc1ccc(SCC(=O)Nc2ccccc2C(=O)N2CCOCC2)cc1 | inconclusive: 22.4 µM [activator, single point]
Cc1ccc(C(O)(C(=O)NNC(=O)CN2CCN(C)CC2)c2ccc(C)cc2)cc1 | inconclusive: 7.94 µM [activator, single point]
O=C(CC1CC2CCC1C2)N1CCN(S(=O)(=O)c2ccccc2C(F)(F)F)CC1 (configuration not stated) | inactive
CCOc1cccc(C(=O)NNC(=O)C2C3C=CC(C3)C2C(=O)O)c1 (configuration not stated) | inactive
Oc1ccc2ccccc2c1C=Nc1ccccc1 | inconclusive: 4.47 µM [activator, partial curve]
COC(=O)c1ccc2c(=O)n(CCCCCC(=O)O)c(=S)[nH]c2c1 | inconclusive: 5.62 µM [activator, partial curve]
O=C(NC1CC1)C1CCN(C2CCN(C(=O)CC3=CCCCC3)CC2)CC1 | inactive
CCc1cccc(CC)c1NC(=O)CN1CCN(c2ccccc2)CC1 | active: 7.08 µM
Cc1ccc(NC2=CC(=O)CCC2)cc1C | inconclusive: 20 µM [activator, single point]
Cc1ccc(CSCC(=O)Nc2ccc3c(c2)OCO3)cc1 | inconclusive: 22.4 µM [activator, single point]
COc1ccccc1NC(=S)NNC(=O)c1cc(C)n(C)n1 | inconclusive: 3.98 µM [activator, single point]
N#CN(CC(N)=O)c1nc(N2CCCCC2)nc(N2CCCCC2)n1 | inconclusive: 22.4 µM [activator, single point]
CC1CCN(C(=O)C2CCN(S(=O)(=O)c3ccc(-n4cnnn4)cc3)CC2)CC1 | inactive

Compound | Potency
CC(Oc1ccc2c(-c3ccccc3)cc(=O)oc2c1)C(=O)NCCN1CCOCC1 (configuration not stated) | inconclusive: 12.6 µM [activator, single point]
CC(NC(=O)NC1CCCCC1)C(c1cccs1)N1CCN(Cc2ccccc2)CC1 (configuration not stated) | inconclusive: 2.51 µM [activator, single point]
CCOc1ccccc1Nc1ncnc2ccccc12 | inactive
CCNC(=S)NNC(=O)c1ccccn1 | inconclusive: 11.2 µM [activator, single point]
COCCNC(=O)COc1coc(CN2CCN(Cc3ccccc3)CC2)cc1=O | inconclusive: 3.98 µM [activator, single point]
CCc1cc(C(=O)NC(C)C2CCCO2)cs1 (configuration not stated) | inconclusive: 0.708 µM [activator, full curve]
COc1ccc(Cn2c(C)c(C)c(C#N)c2NC(=O)Nc2ccc(Cl)cc2)cc1 | inconclusive: 22.4 µM [activator, single point]
COC(=O)c1cc2n3ccccc3c(C)c(-c3ccccc3)c-2c1C(=O)OC | inactive
O=C(COC(=O)c1ccncc1)NC(=O)C1CCCCC1 | inconclusive: 17.8 µM [activator, single point]
N#Cc1nc(-c2cccc3ccccc23)oc1N | inconclusive: 20 µM [activator, single point]
COc1ccc(-c2[nH]ncc2CNCCc2ncccc2C)cc1F | inactive
COc1ccc2nc(C)cc(SCC(=O)N/N=C/c3ccc(O)cc3O)c2c1 | inconclusive: 10 µM [activator, partial curve, poor fit]
C=CCOC(=O)COc1cc(C)cc2oc(=O)c3c(c12)CCC3 | inconclusive: 3.55 µM [activator, single point]
O=C1c2ccccc2NC(c2ccc(Cl)cc2Cl)N1O (configuration not stated) | active: 14.1 µM
CS(=O)(=O)c1nc(S(=O)(=O)c2ccc(Cl)cc2)c(N2CCN(CCO)CC2)s1 | inconclusive: 0.398 µM [activator, full curve]
CCN(CC(=O)Nc1cccc(C(C)=O)c1)S(=O)(=O)c1ccc(OC)cc1 | inactive
CC(C)CC(C(=O)O)C(C)CC(=O)Nc1ccn(-c2ccccc2)n1 (configuration not stated) | inconclusive: 10 µM [activator, partial curve]
CSc1nc2c(c(=O)[nH]1)C(c1cccc(Cl)c1)CC(=O)N2 (configuration not stated) | inactive
CCC(NS(=O)(=O)c1ccc(C)cc1)C(=O)N1CCC2(O)CCCCC2C1 (configuration not stated) | inconclusive: 10 µM [activator, partial curve]
CC1(C)CC(=O)C2=C(C1)NC1=C(C(=O)c3ccccc31)C2c1ccc(O)cc1 (configuration not stated) | inactive
N#Cc1nc(-c2ccc(F)cc2)oc1N1CCCC1 | inconclusive: 20 µM [activator, single point]
CCc1ccc(NC(=S)NC(=O)CC(C)C)cc1 | inconclusive: 5.01 µM [activator, full curve, poor fit]
CC1=C(C(=O)Nc2ccccc2)C(c2ccncc2)C(C#N)=C(SCC(=O)Nc2ccccc2)N1 (configuration not stated) | inactive

Reprinted at random: 3 compounds from above, in no set order.
Compound | Potency
COc1ccc(Cn2c(C)c(C)c(C#N)c2NC(=O)Nc2ccc(Cl)cc2)cc1 | inconclusive: 22.4 µM [activator, single point]
CS(=O)(=O)c1nc(S(=O)(=O)c2ccc(Cl)cc2)c(N2CCN(CCO)CC2)s1 | inconclusive: 0.398 µM [activator, full curve]
N#Cc1nc(-c2ccc(F)cc2)oc1N1CCCC1 | inconclusive: 20 µM [activator, single point]
